{"source": "PubChem BioAssay AID2685", "about": "(National Center for Advancing Translational Sciences (NCATS), 2010)", "note": "Hit rate of the full screen: of about 320,000 compounds, about 2,100 (0.66%) were called active. Inconclusive means that the source gave no clear call. Such entries were picked first, then a sample of the others. Calls follow the shape of the dose curve; as a rule, active = well fitted inhibition curve with a large enough effect in the signal ratio, with a control signal flat (not every such curve was filed as active); inconclusive = small, poorly fitted or top-dose-only effect, or effect the other way, or a change in a side signal; inactive = flat fitted curve, though single readings scatter; the % refers to the signal ratio. Potencies beside an inconclusive call are fits to weak or partial responses and may not hold up. % is scaled to controls: 0 for no effect and ±100 for the full control effect; potency is read from the fitted curve at half-maximal effect.", "data": [{"test": "qHTS Assay for Lipid Storage Modulators in Drosophila S3 Cells", "conditions": "BODIPY lipid droplet fluorescence, 18-24 h, cells fed with added oleic acid; lipid storage change, negative = inhibition: at 46.1 µM (top of the series) unless noted", "outline": "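Drosophila S3 cells got compounds at several concentrations plus oleic acid (400 uM solution). Laser-scanning cytometry with 488 nm excitation read lipid droplets at 500-530 nm and cells at 575-640 nm. Percent activity was relative to 20 uM Triacsin C.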", "values": [{"smiles": "CNC(=O)C1C2C=CC3(O2)C1C(=O)N(C1CC1)C3C(=O)NCc1ccc(OC)cc1", "note": "(stereo not given)", "Potency": "inconclusive: 0.231 µM [falling, full curve]"}, {"smiles": "CC(OC(=O)c1ccc(NC(=O)CC#N)cc1)C(=O)Nc1ccc2c(c1)OCCO2", "note": "(stereo not given)", "lipid storage change, negative = inhibition": "inconclusive: 29.6%"}, {"smiles": "CCOc1cc(/C=N\\NC(N)=O)cc(Br)c1OC(C)C", "Potency": "inconclusive: 1.64 µM [activator, partial curve, poor fit]"}, {"smiles": "CC1=NN(C(=O)Cc2ccc([N+](=O)[O-])cc2)C(O)(c2cccnc2)C1", "note": "(stereo not given)", "lipid storage change, negative = inhibition": "inconclusive: 24.5%"}, {"smiles": "CCC(C)NC(=O)CN1C(=O)C(CC)Sc2ccccc21", "note": "(stereo not given)", "lipid storage change, negative = inhibition": "inactive: -2.81%"}, {"smiles": "Cc1ccc(S(=O)(=O)N2CCN(S(=O)(=O)c3ccc(C)cc3)C3OCCOC32)cc1", "note": "(stereo not given)", "lipid storage change, negative = inhibition": "inactive: 10.1%"}, {"smiles": "CC(=O)Nc1ccc(S(=O)(=O)N(C)CC(=O)N/N=C/c2cccc(O)c2)cc1", "Potency": "inconclusive: 18.4 µM [activator, single point]"}, {"smiles": "Cc1nc2ccccc2cc1C(=O)N(C)Cc1ccccc1", "Potency": "inconclusive: 0.146 µM [activator, full curve]"}, {"smiles": "Cc1ccc(-c2c3c(=O)n(C)c(=O)n(C)c3cn2N2CCOCC2)cc1", "lipid storage change, negative = inhibition": "inconclusive: -86.6%"}, {"smiles": "COc1ccc2oc(=N)c(C(=O)Nc3cccc(C)c3C)cc2c1", "Potency": "inconclusive: 29.1 µM [activator, single point]"}, {"smiles": "CCCC1=Nc2cc(C(=O)NCCCOCC)ccc2Sc2ccccc21", "lipid storage change, negative = inhibition": "inconclusive: -28.7%"}, {"smiles": "O=C(CCCCC(=O)N1CCN(c2ccccc2)CC1)N1CCN(c2ccccc2)CC1", "lipid storage change, negative = inhibition": "inconclusive: 37.3%"}, {"smiles": "Cc1nn(CCC(=O)NNC(=S)NCC(C)C)c(C)c1Br", "Potency": "inconclusive: 6.51 µM [rising, single point]"}, {"smiles": "c1ccc(N2CCCCC2)c(Nc2nc3ccccc3n3cnnc23)c1", "Potency": "inconclusive: 0.231 µM [activator, full curve, poor fit]"}, {"smiles": "CC(=O)c1cc2c(cc1NC(=O)CN1CCOCC1)OCO2", "Potency": "inconclusive: 2.59 µM [activator, full curve]"}, {"smiles": "Cc1ccc2c(=O)cc(C(=O)NCc3ccccc3)oc2c1C", "lipid storage change, negative = inhibition": "inconclusive: 20.8%"}, {"smiles": "CN(C)CCCNS(=O)(=O)c1ccc(N2CCN(Cc3ccc4c(c3)OCO4)CC2)c([N+](=O)[O-])c1", "outcome": "inactive [at 46.1 µM]"}, {"smiles": "COc1ccc(NC(=O)CN(Cc2ccccc2)S(C)(=O)=O)cc1", "lipid storage change, negative = inhibition": "inconclusive: -7.04%"}, {"smiles": "CCCC(C)NC(=O)CSc1nc2ccc(C)cc2[nH]1", "note": "(stereo not given)", "Potency": "inconclusive: 3.26 µM [rising, single point]"}, {"smiles": "O=C(COc1ccc2ccccc2c1Br)N1CCN(c2ccccn2)CC1", "lipid storage change, negative = inhibition": "inconclusive: 11.7%"}, {"smiles": "O=C(O)CC(CC(=O)Nc1ccc(Oc2ccccc2)cc1)c1ccccc1", "note": "(stereo not given)", "lipid storage change, negative = inhibition": "inconclusive: -7.18%"}, {"smiles": "CCOC(=O)c1c(N)n(CC(C)NC(=O)C2CC2)c2nc3ccccc3nc12", "note": "(stereo not given)", "lipid storage change, negative = inhibition": "inconclusive: -11.7%"}, {"smiles": "CCOCc1c(C(=O)N2CCN(Cc3ccc(Br)s3)CC2)oc2ccccc12", "Potency": "inconclusive: 0.58 µM [falling, full curve, poor fit]"}, {"smiles": "CCS(=O)(=O)c1nc(NC(C)=O)n[nH]1", "lipid storage change, negative = inhibition": "inconclusive: -38.6%"}, {"smiles": "Cc1ccc(-c2csc(NC(=O)c3ccc4c(=O)n5c(nc4c3)CCCCC5)n2)cc1", "lipid storage change, negative = inhibition": "inconclusive: -13.2%"}, {"smiles": "CCC(CC)c1nnc(NC(=O)CN2C(=O)C3C4C=CC(C4)C3C2=O)s1", "note": "(stereo not given)", "lipid storage change, negative = inhibition": "inconclusive: -30.5%"}, {"smiles": "CCOc1ncccc1C(=O)N1CCN(C(=O)c2ccccc2)CC1", "lipid storage change, negative = inhibition": "inconclusive: -20.6%"}, {"smiles": "CCOC(=O)C1=C(C)Nc2sc(C(=O)c3ccc(C)cc3)c(N)c2C1c1ccc(C(=O)OC)cc1", "note": "(stereo not given)", "Potency": "inconclusive: 0.731 µM [activator, partial curve]"}, {"smiles": "Cc1ccc(O)c(-c2cc(C(=O)Nc3ccc(S(=O)(=O)Nc4nccc(C)n4)cc3)[nH]n2)c1", "lipid storage change, negative = inhibition": "inconclusive: -6.27%"}, {"smiles": "O=C(/C=C/c1cccc([N+](=O)[O-])c1)N1CCN(c2ccc(F)cc2)CC1", "Potency": "active: 20.6 µM"}, {"smiles": "O=C(CN(C1CCCCC1)S(=O)(=O)c1ccc(Cl)cc1)NCCCO", "lipid storage change, negative = inhibition": "inconclusive: 18.2%"}, {"smiles": "Cc1cccc(C)c1N1C(=O)C2ON(c3ccccc3)C(c3ccncc3)C2C1=O", "note": "(stereo not given)", "lipid storage change, negative = inhibition": "inconclusive: 33.8%"}, {"smiles": "O=C(NCc1ccccc1F)C1CC(=O)N(c2ccc3c(c2)OCCO3)C1", "note": "(stereo not given)", "lipid storage change, negative = inhibition": "inconclusive: 19%"}, {"smiles": "Cc1ccc(S(=O)(=O)NCCc2nnc3ccc(SCC(=O)Nc4nc5ccccc5s4)nn23)cc1", "Potency": "inconclusive: 4.61 µM [activator, full curve]"}, {"smiles": "COc1ccc(-n2nnnc2SCC(=O)Nc2nnc(C)s2)cc1", "Potency": "inconclusive: 4.61 µM [activator, full curve, poor fit]"}, {"smiles": "O=C(Nc1cccnc1)c1ccc(N2CCOCC2)c([N+](=O)[O-])c1", "lipid storage change, negative = inhibition": "inconclusive: -14.4%"}, {"smiles": "Cc1cc(C(=O)Nc2nnc(-c3ccccc3)s2)no1", "lipid storage change, negative = inhibition": "inconclusive: 26.5%"}, {"smiles": "Nc1ncccc1C(=O)OCC(=O)N1CCN(S(=O)(=O)c2ccc(Cl)cc2)CC1", "lipid storage change, negative = inhibition": "inconclusive: 10.9%"}, {"smiles": "Cc1ccccc1/C(N)=N/OC(=O)c1ccc(F)cc1", "lipid storage change, negative = inhibition": "inconclusive: -47.4% [at 0.00295 µM]"}, {"smiles": "COCCNc1nc(C)cc(-c2cc(C(=O)NC3CCCC3)on2)n1", "lipid storage change, negative = inhibition": "inconclusive: 9.82%"}, {"smiles": "O=C(NC12CC3CC(CC(C3)C1)C2)c1ccccc1O", "Potency": "inconclusive: 25.9 µM [activator, single point]"}, {"smiles": "Cc1ccc(Oc2ccc(OCC(=O)NC(C)C(=O)O)cc2)cc1", "note": "(stereo not given)", "Potency": "inconclusive: 29.1 µM [activator, single point]"}, {"smiles": "Cn1c(Cn2c(=O)sc3ccccc32)nnc1SCC(=O)NCc1ccccc1", "Potency": "inconclusive: 10.3 µM [falling, partial curve]"}, {"smiles": "CC(=O)Oc1ccc(-c2nc3ccccc3c(=O)o2)cc1", "Potency": "inconclusive: 4.11 µM [falling, single point]"}, {"smiles": "COc1ccc(NC(=O)C2CC(c3ccc(Cl)cc3)=NO2)cc1OC", "note": "(stereo not given)", "Potency": "inconclusive: 4.61 µM [activator, single point]"}, {"smiles": "O=S(=O)(c1ccc(N2CCOCC2)cc1)N1CCOCC1", "lipid storage change, negative = inhibition": "inconclusive: 1.02%"}, {"smiles": "Cc1ccc(Cl)cc1N1CCN(S(=O)(=O)c2cn(C)cn2)CC1", "Potency": "inconclusive: 29.1 µM [falling, single point]"}, {"smiles": "Cc1cc(NC(=O)c2ccc(N3C(=O)C4C5C=CC(C5)C4C3=O)cc2)no1", "note": "(stereo not given)", "lipid storage change, negative = inhibition": "inconclusive: -37.2%"}, {"smiles": "COC(=O)c1scc(C)c1-n1ccc(C(=O)C(=O)N(C)C)c1", "lipid storage change, negative = inhibition": "inconclusive: -36.4%"}, {"smiles": "COc1ccccc1CNC(=O)CN1C(=O)N(C)C2(CCCCC2)C1=O", "Potency": "inconclusive: 2.59 µM [activator, single point]"}, {"smiles": "Cc1occc1C(=O)NNC(=O)Cc1ccccc1", "lipid storage change, negative = inhibition": "inconclusive: -4.76%"}, {"smiles": "N#C/C=C\\Oc1ccc(Cl)cc1N", "lipid storage change, negative = inhibition": "inconclusive: -9.08%"}, {"smiles": "OC(CNc1nc2ccccc2s1)c1ccccc1", "note": "(stereo not given)", "lipid storage change, negative = inhibition": "inconclusive: -33.1%"}, {"smiles": "CC(C)(C)NS(=O)(=O)c1ccc(CCC(=O)O)cc1", "lipid storage change, negative = inhibition": "inconclusive: -27.8%"}, {"smiles": "O=C(CN1CCN(S(=O)(=O)c2ccc(Br)cc2)CC1)N/N=C/c1cc([N+](=O)[O-])ccc1Cl", "Potency": "inconclusive: 29.1 µM [activator, single point]"}, {"smiles": "CCn1c(COc2ccccc2C)nnc1SCC(=O)O", "Potency": "inconclusive: 2.91 µM [falling, partial curve]"}, {"smiles": "COc1ccc([N+](=O)[O-])cc1N(CC(O)CN(C)C)S(=O)(=O)c1ccccc1", "note": "(stereo not given)", "lipid storage change, negative = inhibition": "inconclusive: 13%"}, {"smiles": "COC(=O)C1=C(C)NC(=O)NC1c1ccc(OCC(=O)N2CCCCC2)cc1", "note": "(stereo not given)", "lipid storage change, negative = inhibition": "inconclusive: 6.57%"}, {"smiles": "O=C(NC1CC1)C1CCN(C2CCN(C(=O)/C=C/c3cccs3)CC2)CC1", "Potency": "inconclusive: 0.13 µM [falling, full curve]"}, {"smiles": "CC(=O)NC(CSc1cc(C)nc2ccc(Br)cc12)C(=O)O", "note": "(stereo not given)", "lipid storage change, negative = inhibition": "inconclusive: 0.929%"}, {"smiles": "Cc1cc(-c2csc(N)n2)c(C)n1Cc1ccccc1", "lipid storage change, negative = inhibition": "inconclusive: 11.7%"}, {"smiles": "N#Cc1ccsc1NC(=O)CN1CCN(S(=O)(=O)c2cc(Cl)ccc2Cl)CC1", "Potency": "inconclusive: 5.8 µM [cytotoxic, partial curve]"}, {"smiles": "O=c1cc(CN2CCOCC2)nc(C2CC2)[nH]1", "lipid storage change, negative = inhibition": "inconclusive: -37.8%"}, {"smiles": "CCCCc1c(O)nc(SCC(=O)NCCc2ccc(OC)c(OC)c2)[nH]c1=O", "lipid storage change, negative = inhibition": "inconclusive: 36%"}, {"smiles": "Cc1ccc(N=Cc2c(O)c3ccccc3oc2=O)cc1F", "Potency": "inconclusive: 29.1 µM [falling, single point]"}, {"smiles": "COC(=O)c1ccc(C(=O)N(C)C2CCCN(Cc3ccccc3F)C2)nc1", "note": "(stereo not given)", "lipid storage change, negative = inhibition": "inconclusive: 10.4%"}, {"smiles": "CCCc1nnc(NC(=O)c2cc(OC)cc(OC)c2)s1", "Potency": "inconclusive: 4.61 µM [activator, full curve, poor fit]"}, {"smiles": "O=C(Nc1cccc(Cl)c1)c1ccncc1", "lipid storage change, negative = inhibition": "inconclusive: 12.7%"}, {"smiles": "Cc1c(C(=O)OCC(=O)Nc2ccc(N3CCOCC3)cc2)oc2ccccc12", "lipid storage change, negative = inhibition": "inconclusive: 31.1%"}, {"smiles": "CC[C@@H]1[C@H]2CCCC(=O)N3CC[C@@H](C[C@@H]1OC(=O)NCc1ccccc1)[C@@H]23", "lipid storage change, negative = inhibition": "inconclusive: -32.4%"}, {"smiles": "COc1cc(N=c2c([N+](=O)[O-])nn(-c3ccc4c(c3)OCCO4)n2O)cc(OC)c1", "lipid storage change, negative = inhibition": "inconclusive: -26.5%"}, {"smiles": "Cc1cccc(N2CCN(S(=O)(=O)c3cccs3)CC2)c1C", "lipid storage change, negative = inhibition": "inconclusive: 4.16%"}, {"smiles": "O=C(C1CCN(C2CCN(CC3CC=CCC3)CC2)CC1)N1CCOCC1", "note": "(stereo not given)", "lipid storage change, negative = inhibition": "inconclusive: -8.13%"}, {"smiles": "CC(=O)NCCC(=O)N(C)CC1CCN(CCc2cccc(C(F)(F)F)c2)CC1", "lipid storage change, negative = inhibition": "inconclusive: 33.9%"}, {"smiles": "COc1ccc(OC)c(-c2csc(NC(=O)Cc3ccc(OC)c(OC)c3)n2)c1", "lipid storage change, negative = inhibition": "inconclusive: 4.79%"}]}]}
